Results are given in words; binding and its absence hold for the method and conditions named. For some assays here: Binding seen in cells or lysates may run through a third protein.
Legend:
[1] = target: T1, PRG-1 (C. elegans Piwi-type Ago protein) (C. elegans (endogenous in embryos)) (UniProt P90786); assay: SEC; C. elegans embryonic extracts on a size-exclusion column; fractions analysed by Western blot for HENN-1 and PRG-1
T1 sequence: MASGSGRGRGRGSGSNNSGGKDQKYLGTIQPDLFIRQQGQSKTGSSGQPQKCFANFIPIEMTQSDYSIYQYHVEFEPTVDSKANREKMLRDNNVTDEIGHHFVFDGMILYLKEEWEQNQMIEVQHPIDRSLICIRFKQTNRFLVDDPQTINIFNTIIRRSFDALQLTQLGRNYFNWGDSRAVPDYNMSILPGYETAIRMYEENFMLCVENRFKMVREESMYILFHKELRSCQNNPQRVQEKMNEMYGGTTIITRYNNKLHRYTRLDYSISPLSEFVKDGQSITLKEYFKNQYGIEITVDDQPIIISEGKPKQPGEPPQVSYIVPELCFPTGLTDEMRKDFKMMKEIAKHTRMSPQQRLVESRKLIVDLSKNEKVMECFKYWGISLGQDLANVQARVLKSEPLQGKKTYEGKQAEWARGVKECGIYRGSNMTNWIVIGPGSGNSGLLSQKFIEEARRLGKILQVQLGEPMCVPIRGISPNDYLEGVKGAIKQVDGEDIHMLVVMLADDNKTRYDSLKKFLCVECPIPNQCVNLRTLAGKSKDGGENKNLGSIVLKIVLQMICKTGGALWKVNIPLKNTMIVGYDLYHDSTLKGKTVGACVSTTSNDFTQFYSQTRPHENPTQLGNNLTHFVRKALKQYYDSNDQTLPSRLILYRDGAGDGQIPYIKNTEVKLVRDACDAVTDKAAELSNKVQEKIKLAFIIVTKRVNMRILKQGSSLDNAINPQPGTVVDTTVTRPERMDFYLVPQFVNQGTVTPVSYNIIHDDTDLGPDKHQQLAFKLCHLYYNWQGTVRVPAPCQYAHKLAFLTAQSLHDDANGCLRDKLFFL

[2] = target: T1, PRG-1 (C. elegans Piwi-type Ago protein) (C. elegans (endogenous in embryos)); assay: co-IP; co-IP of HENN-1 and PRG-1; told only in the discussion, no details given

B1: HENN-1 (C. elegans HEN1 homolog, C02F5.6) (protein, UniProt P34283 1-442)
chain: MAHTSDGWGAPYDNQTYVEAYEQLEIALLEPLDRILETANVEEFRPKFKNHQDPNDRKNKKNNDEEWRDSIYNIATDESDTDDHEQRKNFFQPPLQVQRNSFVKNTLMEFKRSSQIDISRLAVMGCGEMSLEKGICEYLGSFGTINVLSVDIDEPSLSIGQQLLGKHLERNAEILAVETGLPVLMRSYVGDILEPDHRFADVDAIVSMEVVEHIPLPNAKKFVENVLGTLMPRIFIFSTPNHEYNAVFGMEPGEFRHGDHKFEMNRKEFSNWLEELSIRFPHYQIDPPHYIGMTRGYENLSGASQAAVCRLQVDLNTTLPQEVTPYEMVGHLPCRLGSRLIAYNLVKEAFLDWLEKIELQEHEPRTDGYSPYWIFNVQNILHHLKAPVSFALTIDEKVAIKYIQGMTSRKVHAEYSHGFNGIVILQMHSKEELIKTVQDNTL
- binding [1]: no binding
- binding [2]: no binding
